PubChem BioAssay AID686943 – Drosophila RNAi Screening Center | 2013

Aim: 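Search across the genome for regulators of signalling from receptor tyrosine kinase to ERK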 (primary screen)
Cells: Drosophila S2R+ haemocyte-like cells expressing YFP-tagged ERK (Rolled)
Reagent: long dsRNA against Drosophila genes
Challenge: insulin stimulation versus unstimulated cells; dose and duration not given
Measured: 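Per-plate z-scores of phospho-ERK immunostaining normalised to YFP-tagged ERK, measured with and without insulin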
Reading the numbers: replicate 1, z-score of dpERK with insulin: higher = more active ERK per ERK-YFP after insulin
The screen tested about 23,000 reagents; shown is an unselected part of those with a known target gene and a result. 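Extra replicates exist only for a retested subset of genes; insulin dose and duration not given; both raised and lowered dpERK matter.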 Names joined by + are all predicted targets of the reagent. Not all columns of the deposit are shown. Reagent sequences are not shown. Not stated in the record: the amount of reagent, the time to read-out.

Target gene,dsRNA,"replicate 1, z-score of dpERK with insulin"
PIG-Wa (Phosphatidylinositol glycan anchor biosynthesis class W a),DRSC00728,0.18
l(2)dtl (lethal-(2)-denticleless),DRSC04697,-1.99
CR11386 + CR33222,DRSC17781,-0.69
CG31898,DRSC01019,0.65
btl (breathless),DRSC11331,1.88
CG10280,DRSC12133,0.99
Lrr47 (Leucine-rich repeat 47),DRSC03365,-0.81
CG13124,DRSC02220,0.14
CG15820,DRSC08480,0.29
Lcp65Ab2 + Lcp65Ab1,DRSC10340,0.02
Lcp65Ab2 + Lcp65Ab1,DRSC10343,0.99
CG33301,DRSC02778,-0.18
cype (cyclope),DRSC02356,0.7
Nplp2 (Neuropeptide-like precursor 2),DRSC09824,0.21
Obp50b + Obp50c,DRSC21818,0.17
CG14269,DRSC17912,1.8
CG14450,DRSC11707,-1.07
Rsf1 (Repressor splicing factor 1),DRSC03423,-0.14
Rsf1 (Repressor splicing factor 1),DRSC21953,0.03
AstC-R2 (Allatostatin C receptor 2),DRSC10051,0.8
CG17985,DRSC06702,0.13
E2f2 (E2F transcription factor 2),DRSC03320,0.3
CG30278,DRSC22787,-0.83
Mgat4b,DRSC10256,-0.28
ADD1 (ADD domain-containing protein 1),DRSC07135,1.25
CG15539,DRSC15075,-0.24
RpS4 (Ribosomal protein S4),DRSC11272,1.13
kkv (krotzkopf verkehrt),DRSC12315,0.48
"SmydA-4 (SET and MYND domain containing, arthropod-specific, member 4)",DRSC19390,-0.03
"SmydA-4 (SET and MYND domain containing, arthropod-specific, member 4)",DRSC21866,0.32
Qsox1 (Quiescin sulfhydryl oxidase 1),DRSC06878,1.3
Med (Medea),DRSC16737,-2.7
Cpr62Bc (Cuticular protein 62Bc),DRSC08545,1.1
CG3819,DRSC10378,0.31
Cpr76Bb (Cuticular protein 76Bb),DRSC11061,1.09
Cpr76Bb (Cuticular protein 76Bb),DRSC22870,2.44
CG34396,DRSC04245,-1.32
CG34396,DRSC04246,-0.25
CG13218,DRSC06340,0.23
CG8132,DRSC16383,0.86
CG15260,DRSC01977,0.11
His2B:CG33870 + His2B:CG33868 + His2B:CG33882 + 21 more,DRSC03757,-5.24
ITP (Ion transport peptide),DRSC04222,-0.24
CG13712,DRSC08321,-1.21
ND-20L (NADH dehydrogenase (ubiquinone) 20 kDa subunit-like),DRSC15414,0.76
CG14770,DRSC17947,0.06
CG31999,DRSC17131,-0.2
CG31999,DRSC17133,0.06
CG33340,DRSC14615,-0.66
CG42673,DRSC08989,0.49
CG42673,DRSC08991,-3
CG42673,DRSC10177,1.93
CG42673,DRSC10264,-0.51
CG42673,DRSC10353,0.4
CG42673,DRSC10354,-0.23
VhaM9.7-b (Vacuolar H[+] ATPase M9.7 subunit b),DRSC11841,-0.22
CG3277,DRSC00588,0.06
